Source: the supplement of paper PMC12889115
The other results are listed elsewhere or left out. Values are raw readings; no control value is given beside them.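 Primary screen: polymyxin B was added at a level permeabilizing Salmonella outer membranes while sparing inner membranes. DMSO wells, both with and without polymyxin B, established maximum growth. Plate-to-plate variation meant each plate was ranked on its own, and the lowest-OD600 compounds were selected as hits.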

Tested on: Salmonella enterica serovar Typhimurium SL1344
Assay: bacterial growth OD600 after 18 h with compound and polymyxin B; higher = more bacterial growth (less inhibition)
Settings: 50 µM, Mueller-Hinton broth

Structure (SMILES) | bacterial growth OD600 (polymyxin B 1 µg/mL) | bacterial growth OD600 (polymyxin B 0.75 µg/mL)
COCCN1CCN(C(=O)c2cn(Cc3ccc(Cl)cc3)nn2)CC1 | 1.11 | 
C[C@@H]1CN(Cc2nnnn2CC(=O)N2CCN(C3CCCCC3)C(=O)C2)C[C@H](C)O1 |  | 0.814
COCCN(Cc1cnc(S(=O)(=O)Cc2ccccc2)n1CC(C)C)C(C)C | 0.046 | 
CCn1c(-c2cccc(OC)c2)nc2cc(NC(C)=O)cc(C(=O)NCCCc3ccncc3)c21 |  | 0.782
CC#CC(=O)N1CCCCC1C(=O)Nc1ccc(Oc2ccccc2F)cc1 (stereo unspecified) | 0.188 | 
C#CCN(Cc1nc(-c2ccc(OC)c(OC)c2)oc1C)C1CCCCC1 | 0.936 | 
Cc1cc(C(=O)N2CCCC(N3CCN(c4cccc(C(F)(F)F)c4)CC3)C2)nn1C (stereo unspecified) | 0.958 | 
Cc1ccc(C(=O)N2CC[C@@H](N3CCN(CCc4ccccc4)CC3)[C@H](O)C2)cc1 | 1.07 | 
CC(C)C(=O)N1CCC2(CCCN(Cc3ccc(F)c(F)c3)C2=O)C1 (stereo unspecified) | 0.994 | 
CC(=O)c1ccc(-c2cc(F)cc3c2OC(CNC(=O)C2(c4ccccc4)CC2)C3)s1 (stereo unspecified) |  | 0.497
COCCNC(=O)c1ccc(OC)cc1OC1CCN(Cc2ccc(Cl)s2)CC1 | 1.09 | 
CN(CCc1ccccc1)C1CCCN(Cc2ncc[nH]2)C1 (stereo unspecified) | 1.17 | 
CN(c1ncccc1CNC(=O)C1Cc2ccccc2O1)C1CCCCC1 (stereo unspecified) | 0.242 | 
Cc1nc(N(C)C2CCCCC2)ncc1C(C)NC(=O)CCn1cncn1 (stereo unspecified) |  | 0.91
COc1cccc(CC2CN(Cc3cccn3-c3cccnc3)CCO2)c1 (stereo unspecified) |  | 0.824
O=C(CCN1CCCO1)N1CCCC(CCc2cccc(F)c2)C1 (stereo unspecified) |  | 0.521

Structure (SMILES) | bacterial growth OD600 (polymyxin B 1 µg/mL) | bacterial growth OD600 (polymyxin B 0.75 µg/mL)
C#CCN(C(=O)CCC1(Cc2ccc(Cl)cc2)CCC(=O)N1)C1CCCCC1 (stereo unspecified) |  | 0.584
CCc1ccc(CN(C)C(=O)c2cc(Cn3ccnc3C(C)C)[nH]n2)nc1 | 1.01 | 
COCC(=O)Nc1cccc(-c2nc(CNC(=O)CCc3ccc(OC)c(OC)c3)c(C)o2)c1 |  | 0.922
CC(C)=CC(=O)NC1CCCN(Cc2ccc(Cl)cc2)C1 (stereo unspecified) | 1.1 | 
Cc1oc(-c2cc(F)ccc2F)nc1CN(Cc1cnn(C)c1)C(C)C | 0.899 | 
Cc1nc(N2CCCC(C(=O)NCc3cccc(Cl)c3)C2)nc2cc(S(C)(=O)=O)ccc12 (stereo unspecified) |  | 0.008
Cc1nn(C)c(C)c1CN(C(=O)c1ccc(-n2cc(NC(=O)c3cccnc3)cn2)cc1)C1CC1 |  | 0.79
O=C(Nc1cccc(-c2cscn2)c1)C1CCN(CCc2ccccc2)CC1 | 1.17 | 
CCc1ccc(CN2CCC(C(Cc3ccccc3)N(CC)C(=O)C3CCOCC3)CC2)cc1 (stereo unspecified) |  | 0.744
COc1ccc(CN2CCN(Cc3ccc(C)cc3)C(CCO)C2)cc1 (stereo unspecified) | 0.917 | 
O=C(Nc1ccc(-c2cscn2)cc1)C1CCCN(C(=O)c2cccs2)C1 (stereo unspecified) | 1.04 | 
CO[C@H]1[C@H](NC(=O)c2ccccn2)c2ccccc2C12CCN(C(=O)CCc1c(C)noc1C)CC2 |  | 0.888
CCC(C)CN1CCC(Oc2ccc(C(=O)NCCOC)cc2Cl)CC1 (stereo unspecified) | 1.22 | 
COCc1noc(-c2ccc(N(C)Cc3cn(C)nc3C)nc2)n1 | 0.961 | 
CN(CCc1ccccn1)Cc1ccc2c(c1)CN(C(=O)CC(c1ccccc1)c1ccco1)CCO2 (stereo unspecified) |  | 0.799

Two entries from above in a different format:
Structure (SMILES),bacterial growth OD600 (polymyxin B 1 µg/mL),bacterial growth OD600 (polymyxin B 0.75 µg/mL)
Cc1nn(C)c(C)c1CN(C(=O)c1ccc(-n2cc(NC(=O)c3cccnc3)cn2)cc1)C1CC1,,0.79
O=C(Nc1cccc(-c2cscn2)c1)C1CCN(CCc2ccccc2)CC1,1.17,
